Results from article PMC6981129.
Numbering of substitutions follows the chain as printed. Results are given in words; binding and its absence hold for the method and conditions named. Binding can be weak; no strength is given. For part of these data: Binding seen in cells or lysates may run through a third protein. For part of these data: Where a sequence is shown, tags or fusion partners need not be part of it.

Chains of the proteins cited; added tags and fusions are not shown. Lines headed by an entry give the natural chain unless they say otherwise; changes in a name come on top.
UniProt A3BE68: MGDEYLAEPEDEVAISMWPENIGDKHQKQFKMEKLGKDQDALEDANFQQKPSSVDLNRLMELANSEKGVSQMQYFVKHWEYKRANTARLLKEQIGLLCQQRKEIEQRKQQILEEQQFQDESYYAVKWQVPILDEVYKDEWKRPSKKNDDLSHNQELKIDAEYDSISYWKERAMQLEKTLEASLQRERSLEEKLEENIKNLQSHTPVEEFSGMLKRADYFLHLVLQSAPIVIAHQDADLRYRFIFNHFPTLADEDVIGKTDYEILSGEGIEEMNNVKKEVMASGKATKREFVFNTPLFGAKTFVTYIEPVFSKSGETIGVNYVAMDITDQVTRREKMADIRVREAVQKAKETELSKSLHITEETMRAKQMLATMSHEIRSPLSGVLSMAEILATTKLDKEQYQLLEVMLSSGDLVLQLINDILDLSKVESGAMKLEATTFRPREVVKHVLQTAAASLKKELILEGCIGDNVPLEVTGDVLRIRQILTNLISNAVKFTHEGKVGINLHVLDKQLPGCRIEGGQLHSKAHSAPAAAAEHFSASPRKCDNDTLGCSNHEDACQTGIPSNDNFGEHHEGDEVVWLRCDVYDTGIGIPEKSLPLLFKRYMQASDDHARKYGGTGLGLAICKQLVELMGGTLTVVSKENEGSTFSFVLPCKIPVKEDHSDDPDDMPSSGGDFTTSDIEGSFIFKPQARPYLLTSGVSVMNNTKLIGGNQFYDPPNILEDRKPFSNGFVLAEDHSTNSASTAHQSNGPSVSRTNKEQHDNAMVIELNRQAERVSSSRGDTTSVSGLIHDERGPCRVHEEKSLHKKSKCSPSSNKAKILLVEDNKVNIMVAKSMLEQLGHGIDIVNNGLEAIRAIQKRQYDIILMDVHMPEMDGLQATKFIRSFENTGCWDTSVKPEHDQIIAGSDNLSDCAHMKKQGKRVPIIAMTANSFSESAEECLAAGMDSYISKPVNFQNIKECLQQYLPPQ

What was measured:
[1] = target: T1, ERS2GAF-GFP (rice (Oryza sativa L.)) (UniProt Q0DKM0); test: co-IP; MHZ1-FLAG and GFP-tagged receptor versions cotransformed into rice protoplasts; IP buffer 50 mM HEPES pH 7.5, 150 mM NaCl, 0.5 mM EDTA, 0.5% NP-40; immunoprecipitated with GFP-Trap beads 2 h at 4 °C; immunoblot with anti-GFP and anti-FLAG
T1 sequence: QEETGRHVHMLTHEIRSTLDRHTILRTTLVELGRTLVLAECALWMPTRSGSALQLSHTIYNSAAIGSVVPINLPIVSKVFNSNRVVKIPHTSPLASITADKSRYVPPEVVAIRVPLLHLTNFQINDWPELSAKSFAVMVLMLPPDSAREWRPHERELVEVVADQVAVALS

[2] = target: T2, OsERS2-Cub (ethylene receptor OsERS2) (rice (Oryza sativa L.)) (UniProt Q0DKM0); test: two-hybrid; split-ubiquitin membrane-based yeast two-hybrid (DUAL membrane starter kit SUC); bait OsERS2-Cub in pBT3-STE, prey NubG-MHZ1 in pPR3-N, yeast strain NMY51; interaction read as growth on SD-Trp-Leu-His-Ade
T2 sequence: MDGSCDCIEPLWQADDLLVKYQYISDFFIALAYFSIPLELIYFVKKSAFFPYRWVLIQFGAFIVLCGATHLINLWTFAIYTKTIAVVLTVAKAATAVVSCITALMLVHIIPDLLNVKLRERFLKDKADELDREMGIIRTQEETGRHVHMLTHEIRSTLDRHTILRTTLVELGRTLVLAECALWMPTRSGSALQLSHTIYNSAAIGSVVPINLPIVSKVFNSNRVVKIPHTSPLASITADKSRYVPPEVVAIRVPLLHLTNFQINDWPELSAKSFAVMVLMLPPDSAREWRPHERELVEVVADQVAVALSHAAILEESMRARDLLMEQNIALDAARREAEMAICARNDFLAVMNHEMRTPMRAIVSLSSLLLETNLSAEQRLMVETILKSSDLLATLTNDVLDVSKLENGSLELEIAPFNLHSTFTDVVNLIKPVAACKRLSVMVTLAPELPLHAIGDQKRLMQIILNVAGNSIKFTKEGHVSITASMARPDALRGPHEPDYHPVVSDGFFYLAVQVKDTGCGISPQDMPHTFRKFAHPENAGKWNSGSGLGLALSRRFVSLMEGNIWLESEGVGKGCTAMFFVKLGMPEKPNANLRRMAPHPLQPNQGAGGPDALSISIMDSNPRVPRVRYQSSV

[3] = target: T3, Osers2^d (OsERS2 with the dominant gain-of-function mutation A32V) (rice (Oryza sativa L.)) (UniProt Q0DKM0); test: as above
T3 sequence: T2 sequence with A32V

Substance | binding [1] | binding [2] | binding [3]
MHZ1-FLAG (from UniProt A3BE68) (enzyme) | binds | – | –
NubG-MHZ1 (histidine kinase MHZ1/OsHK1) (from UniProt A3BE68) (enzyme) | – | binds | binds
